Experimental data: article doi:10.1101/810192
These are yes or no findings as the source states them, for the method shown. In cells and extracts the contact can be indirect. Some entries that bind do so weakly or less than the wild type.

Target: T1, Stimulator of interferon genes (STING) (mouse (endogenous in BMDC)) (UniProt Q3TBT3)
T1 sequence: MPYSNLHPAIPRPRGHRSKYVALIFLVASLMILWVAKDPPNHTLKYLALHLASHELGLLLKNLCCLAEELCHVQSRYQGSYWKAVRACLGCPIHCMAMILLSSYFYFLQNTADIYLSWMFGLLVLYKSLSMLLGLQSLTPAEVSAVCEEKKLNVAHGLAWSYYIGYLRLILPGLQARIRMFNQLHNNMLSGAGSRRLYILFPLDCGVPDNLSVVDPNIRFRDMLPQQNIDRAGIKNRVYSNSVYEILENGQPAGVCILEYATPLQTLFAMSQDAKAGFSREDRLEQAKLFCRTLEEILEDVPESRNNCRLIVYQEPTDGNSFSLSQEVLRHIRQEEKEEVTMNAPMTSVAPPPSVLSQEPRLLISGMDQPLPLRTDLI
Assay: co-IP

- binding: binds
Substance: LYN, a member of Src family kinases (from UniProt P25911-1 1-512)
